# From the supplement of paper PMC12819154, “High-throughput peptide-centric local stability assay extends protein–ligand identification to membrane proteins, tissues and bacteria” (Nature Structural & Molecular Biology, 2025)
# By UniProt entry, the sequences of proteins in these tests, tags left out. Where a name states a change or a piece, a line headed by the entry shows the natural chain unless it says otherwise.
# UniProt Q9QYY9: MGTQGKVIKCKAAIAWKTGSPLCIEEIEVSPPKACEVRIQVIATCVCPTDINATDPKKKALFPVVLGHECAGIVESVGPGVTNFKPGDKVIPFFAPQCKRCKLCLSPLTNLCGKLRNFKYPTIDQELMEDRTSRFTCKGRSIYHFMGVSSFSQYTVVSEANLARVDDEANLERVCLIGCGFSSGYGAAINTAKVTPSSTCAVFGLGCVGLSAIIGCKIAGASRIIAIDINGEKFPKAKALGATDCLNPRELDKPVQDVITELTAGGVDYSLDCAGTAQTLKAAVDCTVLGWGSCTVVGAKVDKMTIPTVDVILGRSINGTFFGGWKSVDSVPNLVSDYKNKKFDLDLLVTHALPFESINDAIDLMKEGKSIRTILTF
# UniProt Q9R0G7: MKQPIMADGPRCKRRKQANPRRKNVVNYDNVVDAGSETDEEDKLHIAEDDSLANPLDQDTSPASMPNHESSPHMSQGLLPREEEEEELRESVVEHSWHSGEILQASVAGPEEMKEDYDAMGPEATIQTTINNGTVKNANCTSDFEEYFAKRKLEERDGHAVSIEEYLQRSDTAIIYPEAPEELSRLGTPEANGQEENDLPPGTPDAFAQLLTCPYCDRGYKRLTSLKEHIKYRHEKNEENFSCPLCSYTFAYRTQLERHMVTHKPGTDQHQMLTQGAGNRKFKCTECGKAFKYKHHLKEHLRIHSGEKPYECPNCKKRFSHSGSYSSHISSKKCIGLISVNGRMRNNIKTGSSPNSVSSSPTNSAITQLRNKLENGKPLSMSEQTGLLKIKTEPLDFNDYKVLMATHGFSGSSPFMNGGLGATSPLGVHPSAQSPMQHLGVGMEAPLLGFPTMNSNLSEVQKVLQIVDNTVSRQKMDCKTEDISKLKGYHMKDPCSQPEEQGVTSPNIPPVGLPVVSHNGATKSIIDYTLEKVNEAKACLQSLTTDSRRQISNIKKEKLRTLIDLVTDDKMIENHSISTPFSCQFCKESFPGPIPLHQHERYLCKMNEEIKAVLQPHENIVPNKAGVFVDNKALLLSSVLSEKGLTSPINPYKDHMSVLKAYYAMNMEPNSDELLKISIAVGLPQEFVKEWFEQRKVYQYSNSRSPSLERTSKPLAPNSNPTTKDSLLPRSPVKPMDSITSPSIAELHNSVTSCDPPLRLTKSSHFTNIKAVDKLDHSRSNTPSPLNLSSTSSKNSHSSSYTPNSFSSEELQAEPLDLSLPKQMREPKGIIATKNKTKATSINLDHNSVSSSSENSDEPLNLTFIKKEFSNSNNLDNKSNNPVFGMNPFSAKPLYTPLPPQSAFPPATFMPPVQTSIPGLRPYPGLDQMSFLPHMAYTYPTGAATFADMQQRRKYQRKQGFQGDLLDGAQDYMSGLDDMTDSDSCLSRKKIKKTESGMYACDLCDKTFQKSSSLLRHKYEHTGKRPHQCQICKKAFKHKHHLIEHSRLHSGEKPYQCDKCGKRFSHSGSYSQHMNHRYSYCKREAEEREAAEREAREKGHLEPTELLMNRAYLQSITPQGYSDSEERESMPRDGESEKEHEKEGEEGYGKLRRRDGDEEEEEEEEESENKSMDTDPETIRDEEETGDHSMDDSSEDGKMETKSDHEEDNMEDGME
# UniProt Q9WTZ2: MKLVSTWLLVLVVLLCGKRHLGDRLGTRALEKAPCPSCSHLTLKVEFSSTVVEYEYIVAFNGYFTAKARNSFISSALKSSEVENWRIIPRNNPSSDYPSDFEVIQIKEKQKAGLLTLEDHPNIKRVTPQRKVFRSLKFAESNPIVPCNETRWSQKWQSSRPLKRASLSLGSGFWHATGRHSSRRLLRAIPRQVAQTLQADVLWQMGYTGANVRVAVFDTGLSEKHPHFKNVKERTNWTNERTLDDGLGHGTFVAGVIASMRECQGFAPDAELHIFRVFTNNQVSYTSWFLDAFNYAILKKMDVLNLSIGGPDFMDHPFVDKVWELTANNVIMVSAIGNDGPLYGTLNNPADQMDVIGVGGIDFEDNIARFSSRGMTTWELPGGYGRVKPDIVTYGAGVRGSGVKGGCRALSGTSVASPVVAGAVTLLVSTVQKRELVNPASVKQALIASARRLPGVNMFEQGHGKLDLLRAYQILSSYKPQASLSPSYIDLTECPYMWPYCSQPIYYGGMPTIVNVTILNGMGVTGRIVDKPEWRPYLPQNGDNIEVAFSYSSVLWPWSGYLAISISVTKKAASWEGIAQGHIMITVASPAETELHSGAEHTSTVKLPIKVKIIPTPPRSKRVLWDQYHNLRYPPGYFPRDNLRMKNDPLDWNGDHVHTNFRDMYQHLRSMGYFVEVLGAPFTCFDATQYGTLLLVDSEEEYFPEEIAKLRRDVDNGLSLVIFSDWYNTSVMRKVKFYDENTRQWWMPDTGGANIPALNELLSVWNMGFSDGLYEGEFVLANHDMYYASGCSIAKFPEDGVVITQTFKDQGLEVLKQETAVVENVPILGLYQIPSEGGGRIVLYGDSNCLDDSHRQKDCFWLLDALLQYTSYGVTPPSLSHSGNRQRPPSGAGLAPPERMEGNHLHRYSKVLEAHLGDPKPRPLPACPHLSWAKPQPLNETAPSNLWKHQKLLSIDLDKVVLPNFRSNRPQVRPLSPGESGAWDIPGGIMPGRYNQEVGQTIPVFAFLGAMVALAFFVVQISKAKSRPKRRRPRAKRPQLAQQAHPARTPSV
# UniProt Q9QZR0: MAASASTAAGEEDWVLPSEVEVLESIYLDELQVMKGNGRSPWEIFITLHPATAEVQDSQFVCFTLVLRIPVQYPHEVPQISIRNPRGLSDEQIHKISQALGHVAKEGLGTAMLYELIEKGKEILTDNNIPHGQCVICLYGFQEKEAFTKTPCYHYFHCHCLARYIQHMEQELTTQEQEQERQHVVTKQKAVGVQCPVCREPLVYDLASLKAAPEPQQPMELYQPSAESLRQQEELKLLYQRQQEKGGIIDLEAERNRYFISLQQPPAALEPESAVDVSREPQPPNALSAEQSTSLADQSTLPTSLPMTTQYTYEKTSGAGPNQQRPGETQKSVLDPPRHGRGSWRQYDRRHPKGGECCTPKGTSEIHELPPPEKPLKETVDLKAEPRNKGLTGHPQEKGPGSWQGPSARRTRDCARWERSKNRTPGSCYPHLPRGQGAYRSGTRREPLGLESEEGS
# UniProt Q9R210: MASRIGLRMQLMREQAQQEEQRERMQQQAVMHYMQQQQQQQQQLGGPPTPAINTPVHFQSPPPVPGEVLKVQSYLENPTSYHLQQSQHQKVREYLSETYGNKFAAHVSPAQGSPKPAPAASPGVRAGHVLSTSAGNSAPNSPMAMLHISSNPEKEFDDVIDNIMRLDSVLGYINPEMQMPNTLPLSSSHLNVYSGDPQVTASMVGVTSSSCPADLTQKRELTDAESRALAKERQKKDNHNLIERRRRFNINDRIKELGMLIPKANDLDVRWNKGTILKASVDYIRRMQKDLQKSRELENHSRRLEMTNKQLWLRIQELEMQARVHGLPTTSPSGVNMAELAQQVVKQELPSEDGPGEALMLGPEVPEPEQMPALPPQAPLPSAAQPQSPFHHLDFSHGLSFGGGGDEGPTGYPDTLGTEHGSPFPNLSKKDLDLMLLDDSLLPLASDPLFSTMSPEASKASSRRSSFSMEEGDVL
# UniProt Q9QXZ6: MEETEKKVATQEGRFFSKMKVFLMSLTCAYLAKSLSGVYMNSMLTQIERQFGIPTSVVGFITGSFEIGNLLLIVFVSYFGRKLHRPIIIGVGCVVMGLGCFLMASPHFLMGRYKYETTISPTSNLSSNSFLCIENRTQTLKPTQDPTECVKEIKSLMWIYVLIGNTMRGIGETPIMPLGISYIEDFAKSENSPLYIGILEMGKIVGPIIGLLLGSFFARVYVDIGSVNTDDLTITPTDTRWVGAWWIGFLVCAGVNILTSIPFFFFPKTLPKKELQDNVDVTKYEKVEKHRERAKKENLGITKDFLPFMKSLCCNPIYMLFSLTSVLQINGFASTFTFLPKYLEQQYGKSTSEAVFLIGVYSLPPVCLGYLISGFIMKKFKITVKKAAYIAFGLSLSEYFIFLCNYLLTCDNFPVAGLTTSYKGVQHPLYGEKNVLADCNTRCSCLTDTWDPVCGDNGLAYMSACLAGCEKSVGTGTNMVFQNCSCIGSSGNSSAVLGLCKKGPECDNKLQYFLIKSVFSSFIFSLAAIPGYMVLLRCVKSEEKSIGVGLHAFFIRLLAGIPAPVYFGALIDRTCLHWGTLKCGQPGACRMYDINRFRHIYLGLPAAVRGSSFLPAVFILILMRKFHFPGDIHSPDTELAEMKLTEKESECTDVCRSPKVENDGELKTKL
# UniProt Q9WUP7, whole entry: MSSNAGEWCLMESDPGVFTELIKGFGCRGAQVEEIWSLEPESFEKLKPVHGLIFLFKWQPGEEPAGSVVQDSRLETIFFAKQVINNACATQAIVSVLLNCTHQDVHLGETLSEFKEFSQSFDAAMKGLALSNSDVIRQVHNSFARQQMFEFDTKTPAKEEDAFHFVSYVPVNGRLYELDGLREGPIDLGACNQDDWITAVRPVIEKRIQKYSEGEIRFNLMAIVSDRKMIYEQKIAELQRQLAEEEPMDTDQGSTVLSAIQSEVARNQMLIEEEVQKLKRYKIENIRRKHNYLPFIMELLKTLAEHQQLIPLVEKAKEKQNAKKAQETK
# UniProt Q9R118, whole entry: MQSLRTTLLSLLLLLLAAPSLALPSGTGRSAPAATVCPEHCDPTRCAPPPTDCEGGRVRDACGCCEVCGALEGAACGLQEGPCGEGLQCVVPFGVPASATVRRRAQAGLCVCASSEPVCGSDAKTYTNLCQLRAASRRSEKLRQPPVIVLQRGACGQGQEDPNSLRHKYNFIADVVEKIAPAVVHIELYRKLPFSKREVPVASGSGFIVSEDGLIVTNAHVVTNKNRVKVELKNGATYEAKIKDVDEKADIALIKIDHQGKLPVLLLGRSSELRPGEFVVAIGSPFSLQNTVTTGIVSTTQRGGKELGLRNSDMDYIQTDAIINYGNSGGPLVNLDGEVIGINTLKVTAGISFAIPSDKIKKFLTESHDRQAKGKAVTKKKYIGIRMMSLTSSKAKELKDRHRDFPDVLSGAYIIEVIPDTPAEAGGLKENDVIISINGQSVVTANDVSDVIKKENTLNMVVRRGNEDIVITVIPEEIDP
# UniProt Q9QY73: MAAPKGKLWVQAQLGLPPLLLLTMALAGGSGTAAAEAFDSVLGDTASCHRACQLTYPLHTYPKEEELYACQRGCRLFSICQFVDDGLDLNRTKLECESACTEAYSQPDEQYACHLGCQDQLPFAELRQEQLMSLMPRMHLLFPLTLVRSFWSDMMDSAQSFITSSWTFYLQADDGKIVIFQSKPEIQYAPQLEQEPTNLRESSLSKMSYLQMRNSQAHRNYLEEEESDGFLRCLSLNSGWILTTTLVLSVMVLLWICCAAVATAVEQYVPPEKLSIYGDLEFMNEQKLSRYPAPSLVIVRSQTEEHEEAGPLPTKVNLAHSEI
# UniProt Q9R1Z8: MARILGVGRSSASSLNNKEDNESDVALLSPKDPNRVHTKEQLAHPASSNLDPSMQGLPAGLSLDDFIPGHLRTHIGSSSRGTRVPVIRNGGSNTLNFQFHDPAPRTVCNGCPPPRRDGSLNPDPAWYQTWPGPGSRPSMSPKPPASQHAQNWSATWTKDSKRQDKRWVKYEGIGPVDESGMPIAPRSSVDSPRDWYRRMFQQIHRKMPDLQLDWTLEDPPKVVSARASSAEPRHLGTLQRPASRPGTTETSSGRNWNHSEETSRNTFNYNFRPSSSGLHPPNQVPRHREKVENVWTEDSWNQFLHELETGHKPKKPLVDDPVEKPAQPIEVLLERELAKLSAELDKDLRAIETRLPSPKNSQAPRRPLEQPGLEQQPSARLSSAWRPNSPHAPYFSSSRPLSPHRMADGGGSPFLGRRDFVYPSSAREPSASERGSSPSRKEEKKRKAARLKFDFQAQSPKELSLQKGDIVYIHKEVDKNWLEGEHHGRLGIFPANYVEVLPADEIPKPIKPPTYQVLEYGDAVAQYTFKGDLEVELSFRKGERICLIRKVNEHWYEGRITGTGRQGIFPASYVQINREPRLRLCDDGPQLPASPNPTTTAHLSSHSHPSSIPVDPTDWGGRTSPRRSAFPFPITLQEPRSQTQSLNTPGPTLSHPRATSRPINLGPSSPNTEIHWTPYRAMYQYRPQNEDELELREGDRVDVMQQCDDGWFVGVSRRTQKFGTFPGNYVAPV
# UniProt Q9WV96: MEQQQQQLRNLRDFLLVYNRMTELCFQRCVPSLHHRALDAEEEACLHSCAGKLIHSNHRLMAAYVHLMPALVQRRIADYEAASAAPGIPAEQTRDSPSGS
# UniProt Q9WV68: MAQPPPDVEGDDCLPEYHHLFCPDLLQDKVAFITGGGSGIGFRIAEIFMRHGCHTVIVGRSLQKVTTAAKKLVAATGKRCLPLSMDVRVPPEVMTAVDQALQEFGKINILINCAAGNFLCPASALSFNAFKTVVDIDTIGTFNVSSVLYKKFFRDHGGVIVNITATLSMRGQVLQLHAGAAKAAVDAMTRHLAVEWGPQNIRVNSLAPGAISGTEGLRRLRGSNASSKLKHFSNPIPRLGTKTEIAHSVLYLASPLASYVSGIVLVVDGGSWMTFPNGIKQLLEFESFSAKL
# The other results are listed elsewhere or left out. Most entries show no effect beyond the scatter of the controls.
# Compound: CN[C@@H]1C[C@H]2O[C@@](C)([C@@H]1OC)n1c3ccccc3c3c4c(c5c6ccccc6n2c5c31)C(=O)NC4 [staurosporine]
# Assay: log2 fold change of tryptic peptide abundance, ligand vs vehicle (limited proteolysis) (log2 ratio); higher = more trypsin-susceptible (destabilized)
# Conditions: ligand concentration: 20 uM; sample: mouse liver crude lysate; replicate design: treated separately
row,Target,log2 fold change
1,"UniProt Q9QYY9 (peptide sequence: CKLCLSPLTNLCGK, peptide start residue: 101)",-0.224
2,"UniProt Q9R022 (peptide sequence: TSMHWAVR, peptide start residue: 99)",0.324
3,"UniProt Q9R1C7 (peptide sequence: SMWTEHK, peptide start residue: 144)",0.134
4,"UniProt Q9QZA0 (peptide sequence: MVDNFRPLQPLMNR, peptide start residue: 277)",0.295
5,"UniProt Q9R0L6 (peptide sequence: MKTETESHSNMR, peptide start residue: 1528)",-0.551
6,"UniProt Q9QXE0 (peptide sequence: KAQDFHWLTR, peptide start residue: 569)",0.0775
7,"UniProt Q9R0G7 (peptide sequence: DGESEKEHEKEGEEGYGK, peptide start residue: 1133)",0.56
8,"UniProt Q9R0P5 (peptide sequence: VRKCSTPEEIK, peptide start residue: 20)",-0.221
9,"UniProt Q9R0A5 (peptide sequence: GRKCSHTELESTGTTPAGNALER, peptide start residue: 313)",-0.218
10,"UniProt Q9WTZ2 (peptide sequence: RPQLAQQAHPAR, peptide start residue: 1037)",-0.187
11,"UniProt Q9QZR0 (peptide sequence: GTSEIHELPPPEKPLKETVDLK, peptide start residue: 362)",0.239
12,"UniProt Q9R210 (peptide sequence: IKELGMLIPK, peptide start residue: 254)",0.423
13,"UniProt Q9QXZ6 (peptide sequence: MEETEKK, peptide start residue: 1)",-0.161
14,"UniProt Q9WUP7 (peptide sequence: GLALSNSDVIR, peptide start residue: 127)",-0.241
15,"UniProt Q9R207 (peptide sequence: DEDNPELSSCK, peptide start residue: 469)",0.376
16,"UniProt Q9QZD4 (peptide sequence: LYSQCLAMSR, peptide start residue: 742)",0.4
17,"UniProt Q9R0Z9 (peptide sequence: ALSHGSFCPSGNSSVNWR, peptide start residue: 386)",-0.113
18,"UniProt Q9R118 (peptide sequence: QPPVIVLQR, peptide start residue: 144)",0.319
19,"UniProt Q9R098 (peptide sequence: KWCATTHNYDRDR, peptide start residue: 128)",-0.369
20,"UniProt Q9R013 (peptide sequence: IAAWLAQK, peptide start residue: 368)",-0.0865
21,"UniProt Q9QY73 (peptide sequence: VNLAHSEI, peptide start residue: 316)",0.123
22,"UniProt Q9WV70 (peptide sequence: DRDPEFYK, peptide start residue: 80)",-0.512
23,"UniProt Q9R1E6 (peptide sequence: NKLEELNKR, peptide start residue: 576)",0.205
24,"UniProt Q9R1Z8 (peptide sequence: MADGGGSPFLGR, peptide start residue: 406)",-0.211
25,"UniProt Q9QZE7 (peptide sequence: SFQQELDAR, peptide start residue: 41)",-0.377
26,"UniProt Q9WV96 (peptide sequence: LMAAYVHLMPALVQR, peptide start residue: 60)",0.153
27,"UniProt Q9QZH3 (peptide sequence: EGSSRPVWSDDDWLK, peptide start residue: 89)",0.153
28,"UniProt Q9WUR9 (peptide sequence: GTVCERIAQNFGLQHLSSGHLLR, peptide start residue: 19)",0.236
29,"UniProt Q9R1Q9 (peptide sequence: LGASPLHVDLATLK, peptide start residue: 146)",-0.194
30,"UniProt Q9WV68 (peptide sequence: VNSLAPGAISGTEGLRR, peptide start residue: 203)",-0.142

# Part of the list above, as tab-separated lines.
row	Target	log2 fold change
4	UniProt Q9QZA0 (peptide sequence: MVDNFRPLQPLMNR, peptide start residue: 277)	0.295
7	UniProt Q9R0G7 (peptide sequence: DGESEKEHEKEGEEGYGK, peptide start residue: 1133)	0.56
8	UniProt Q9R0P5 (peptide sequence: VRKCSTPEEIK, peptide start residue: 20)	-0.221
12	UniProt Q9R210 (peptide sequence: IKELGMLIPK, peptide start residue: 254)	0.423
28	UniProt Q9WUR9 (peptide sequence: GTVCERIAQNFGLQHLSSGHLLR, peptide start residue: 19)	0.236
